# According to US20100069502A1, “Assay” (priority 2006, published 2010):
# At least one compound was matched to its structure with a doubt left.
# Tested on: PP1
# Experiment: PP1 phosphorylase phosphatase activity in HEK293 cell lysates
# Assay type: cell-based
# Conditions: 10 mM phenformin, 32P-labelled phosphorylase a, 4 mM okadaic acid
# Protocol: A Levels of phosphorylation of AMPK at Thr172 in 4 untreated and 4 treated samples. Anti-PP5 TPR domain antibody is used as a loading control. Molecular weights (kDa) are indicated to the left of the panels. B PP1 phosphorylase phosphatase activity in treated and untreated HEK293 cell lysates using phosphorylase a as substrate, in the presence of 4 nM okadaic acid. Data are mean±SEM for four samples measured in triplicate. C PP2A phosphorylase phosphatase activity in treated and untreated HEK293 cell lysates using phosphorylase a as substrate, in the presence of 200 nM I-2. Data are mean±SEM for four samples measured in triplicate. […]
# The activity of PP1 in response to phenformin was assessed using ^32P-labelled phosphorylase a as substrate with […] okadaic acid included in the reaction in order to inhibit the activity of PP2A and EGTA (0.1-2 mM) to inhibit metal ion activated protein phosphatases. No change in PP1 phosphorylase phosphatase activity could be detected between unstimulated and 10 mM-phenformin stimulated cell lysates (FIG. 1B).
structure (smiles),measurement,value
"[H]/N=C(/N)N/C(=N/[H])NCCc1ccccc1 [phenformin, phenylethylbiguanide]",PP1 phosphorylase phosphatase activity,No change
